The list shows a part of the results. Small differences around the control level are noise.
compound: CN[C@@H]1C[C@H]2O[C@@](C)([C@@H]1OC)n1c3ccccc3c3c4c(c5c6ccccc6n2c5c31)C(=O)NC4 [staurosporine]; assay: log2 fold change of tryptic peptide abundance, ligand vs vehicle (limited proteolysis) (log2 ratio); higher = more trypsin-susceptible (destabilized); conditions: ligand concentration: 20 uM; sample: mouse liver crude lysate; replicate design: treated separately

Amino acid sequences for entries named in this document (tags omitted). A change or cut given only in a name is not applied to a line headed by its entry.
UniProt Q9CRC9: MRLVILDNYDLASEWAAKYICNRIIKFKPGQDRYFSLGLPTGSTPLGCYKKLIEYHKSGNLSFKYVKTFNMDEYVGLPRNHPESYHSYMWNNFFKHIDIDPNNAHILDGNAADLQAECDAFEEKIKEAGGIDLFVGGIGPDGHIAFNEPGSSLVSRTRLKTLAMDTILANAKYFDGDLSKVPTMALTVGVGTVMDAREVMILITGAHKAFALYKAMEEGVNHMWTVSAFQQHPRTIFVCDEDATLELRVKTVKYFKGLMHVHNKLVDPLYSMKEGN
UniProt Q9CWD8: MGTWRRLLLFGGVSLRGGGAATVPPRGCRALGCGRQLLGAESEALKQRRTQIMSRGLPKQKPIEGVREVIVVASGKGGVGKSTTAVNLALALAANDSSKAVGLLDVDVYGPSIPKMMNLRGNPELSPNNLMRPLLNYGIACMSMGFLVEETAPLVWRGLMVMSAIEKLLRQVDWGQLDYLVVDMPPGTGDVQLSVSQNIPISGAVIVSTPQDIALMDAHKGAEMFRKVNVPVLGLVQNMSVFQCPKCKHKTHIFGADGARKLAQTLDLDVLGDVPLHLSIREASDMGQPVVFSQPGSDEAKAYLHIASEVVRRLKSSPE
UniProt Q9CW42: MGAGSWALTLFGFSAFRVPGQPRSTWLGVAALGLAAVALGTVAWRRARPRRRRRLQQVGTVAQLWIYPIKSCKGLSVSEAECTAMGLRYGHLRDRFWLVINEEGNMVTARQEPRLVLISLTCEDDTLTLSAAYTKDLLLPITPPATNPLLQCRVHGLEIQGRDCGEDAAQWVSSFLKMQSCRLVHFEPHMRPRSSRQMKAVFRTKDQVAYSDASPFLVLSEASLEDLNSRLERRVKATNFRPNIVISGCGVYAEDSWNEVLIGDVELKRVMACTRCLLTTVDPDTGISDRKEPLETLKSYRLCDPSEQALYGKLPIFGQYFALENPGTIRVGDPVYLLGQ
UniProt Q9CZ28: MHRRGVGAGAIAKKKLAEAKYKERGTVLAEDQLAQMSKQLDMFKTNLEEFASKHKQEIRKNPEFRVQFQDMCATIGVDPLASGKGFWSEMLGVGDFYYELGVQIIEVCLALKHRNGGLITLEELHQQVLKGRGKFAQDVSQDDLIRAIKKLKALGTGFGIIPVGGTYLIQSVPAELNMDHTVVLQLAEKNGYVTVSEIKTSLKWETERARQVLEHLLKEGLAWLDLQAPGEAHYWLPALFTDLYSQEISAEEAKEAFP
UniProt Q9CZR8: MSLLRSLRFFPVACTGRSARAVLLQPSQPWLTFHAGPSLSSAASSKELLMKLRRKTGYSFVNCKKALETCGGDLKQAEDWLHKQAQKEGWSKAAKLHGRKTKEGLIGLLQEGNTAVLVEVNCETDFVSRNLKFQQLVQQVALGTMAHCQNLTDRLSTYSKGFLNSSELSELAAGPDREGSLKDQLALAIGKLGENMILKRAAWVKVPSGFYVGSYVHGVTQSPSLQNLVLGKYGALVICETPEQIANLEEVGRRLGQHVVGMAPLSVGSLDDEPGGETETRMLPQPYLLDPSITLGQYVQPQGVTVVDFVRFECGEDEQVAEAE
UniProt Q9CXR4: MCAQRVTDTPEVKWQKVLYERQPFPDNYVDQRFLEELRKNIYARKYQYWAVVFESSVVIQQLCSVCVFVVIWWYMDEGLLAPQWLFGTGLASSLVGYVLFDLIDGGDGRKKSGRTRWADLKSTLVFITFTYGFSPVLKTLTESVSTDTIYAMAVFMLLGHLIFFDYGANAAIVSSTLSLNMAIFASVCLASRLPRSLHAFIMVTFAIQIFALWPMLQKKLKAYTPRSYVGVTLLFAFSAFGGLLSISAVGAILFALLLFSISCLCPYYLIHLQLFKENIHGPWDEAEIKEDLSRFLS
UniProt Q9D0V7: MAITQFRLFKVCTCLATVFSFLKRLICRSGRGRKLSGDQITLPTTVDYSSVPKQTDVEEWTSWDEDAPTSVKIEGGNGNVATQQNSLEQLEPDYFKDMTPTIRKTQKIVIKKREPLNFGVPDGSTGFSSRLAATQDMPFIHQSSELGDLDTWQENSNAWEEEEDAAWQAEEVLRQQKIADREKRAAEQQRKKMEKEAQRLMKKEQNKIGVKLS
UniProt Q9CZH7: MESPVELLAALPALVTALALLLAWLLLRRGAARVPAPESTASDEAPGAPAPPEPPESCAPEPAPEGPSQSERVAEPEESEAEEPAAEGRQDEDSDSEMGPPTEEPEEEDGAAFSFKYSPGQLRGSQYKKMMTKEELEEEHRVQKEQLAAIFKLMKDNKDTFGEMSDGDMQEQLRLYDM
UniProt Q9D0L7: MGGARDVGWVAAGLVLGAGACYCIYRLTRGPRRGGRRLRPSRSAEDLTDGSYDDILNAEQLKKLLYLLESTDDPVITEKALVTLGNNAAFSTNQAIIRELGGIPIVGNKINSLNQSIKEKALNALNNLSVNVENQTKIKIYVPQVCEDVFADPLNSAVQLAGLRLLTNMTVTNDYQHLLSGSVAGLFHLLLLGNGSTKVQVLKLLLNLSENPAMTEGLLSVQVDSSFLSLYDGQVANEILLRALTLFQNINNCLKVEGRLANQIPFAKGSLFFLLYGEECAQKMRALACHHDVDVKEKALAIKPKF
UniProt Q9CZX7: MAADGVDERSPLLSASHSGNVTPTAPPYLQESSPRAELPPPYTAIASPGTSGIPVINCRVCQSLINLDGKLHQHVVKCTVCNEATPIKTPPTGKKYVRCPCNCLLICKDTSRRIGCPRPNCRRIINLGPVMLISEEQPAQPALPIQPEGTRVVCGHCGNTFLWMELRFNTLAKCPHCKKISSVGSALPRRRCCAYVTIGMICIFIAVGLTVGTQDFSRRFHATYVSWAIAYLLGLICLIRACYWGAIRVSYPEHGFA
UniProt Q9CT10: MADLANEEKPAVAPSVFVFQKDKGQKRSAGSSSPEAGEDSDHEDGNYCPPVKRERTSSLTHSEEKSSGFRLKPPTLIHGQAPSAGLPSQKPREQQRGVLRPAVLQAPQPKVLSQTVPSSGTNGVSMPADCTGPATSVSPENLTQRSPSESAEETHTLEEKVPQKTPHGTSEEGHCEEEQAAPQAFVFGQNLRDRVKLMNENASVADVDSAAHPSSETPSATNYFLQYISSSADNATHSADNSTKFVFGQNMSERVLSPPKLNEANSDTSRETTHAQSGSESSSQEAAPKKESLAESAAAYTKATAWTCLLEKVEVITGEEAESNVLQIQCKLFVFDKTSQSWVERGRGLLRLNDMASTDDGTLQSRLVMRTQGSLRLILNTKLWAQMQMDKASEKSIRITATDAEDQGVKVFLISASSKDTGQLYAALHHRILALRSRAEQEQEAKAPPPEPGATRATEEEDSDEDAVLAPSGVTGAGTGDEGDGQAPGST
UniProt Q9CRC6: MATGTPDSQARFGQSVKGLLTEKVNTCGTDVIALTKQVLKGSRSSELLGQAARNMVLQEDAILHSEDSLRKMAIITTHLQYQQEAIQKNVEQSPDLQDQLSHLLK
UniProt Q9CXI3: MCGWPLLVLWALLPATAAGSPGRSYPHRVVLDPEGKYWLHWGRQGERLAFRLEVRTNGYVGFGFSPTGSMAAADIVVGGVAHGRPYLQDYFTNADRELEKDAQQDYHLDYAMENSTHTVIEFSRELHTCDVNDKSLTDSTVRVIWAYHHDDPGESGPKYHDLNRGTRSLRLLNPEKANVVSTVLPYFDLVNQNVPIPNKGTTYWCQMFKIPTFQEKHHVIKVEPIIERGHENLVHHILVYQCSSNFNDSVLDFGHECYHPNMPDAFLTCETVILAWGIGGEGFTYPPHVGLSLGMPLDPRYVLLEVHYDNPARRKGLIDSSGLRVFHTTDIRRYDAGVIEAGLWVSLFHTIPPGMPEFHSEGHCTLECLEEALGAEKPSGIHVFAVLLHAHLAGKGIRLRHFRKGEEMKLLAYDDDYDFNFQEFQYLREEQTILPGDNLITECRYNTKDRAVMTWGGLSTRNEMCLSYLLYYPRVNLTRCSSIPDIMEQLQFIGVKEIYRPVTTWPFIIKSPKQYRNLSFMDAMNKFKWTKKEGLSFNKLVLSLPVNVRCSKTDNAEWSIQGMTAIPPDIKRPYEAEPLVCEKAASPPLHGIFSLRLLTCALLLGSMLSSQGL
UniProt Q9D0M3: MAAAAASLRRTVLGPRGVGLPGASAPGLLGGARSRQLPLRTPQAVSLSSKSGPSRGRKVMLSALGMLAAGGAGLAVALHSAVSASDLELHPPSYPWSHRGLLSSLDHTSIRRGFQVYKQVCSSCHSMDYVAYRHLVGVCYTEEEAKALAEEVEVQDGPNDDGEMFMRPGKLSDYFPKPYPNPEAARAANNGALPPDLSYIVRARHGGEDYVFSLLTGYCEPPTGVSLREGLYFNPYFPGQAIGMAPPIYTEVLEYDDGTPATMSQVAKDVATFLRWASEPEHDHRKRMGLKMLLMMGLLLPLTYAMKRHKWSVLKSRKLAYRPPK
UniProt Q9CZT5, whole entry: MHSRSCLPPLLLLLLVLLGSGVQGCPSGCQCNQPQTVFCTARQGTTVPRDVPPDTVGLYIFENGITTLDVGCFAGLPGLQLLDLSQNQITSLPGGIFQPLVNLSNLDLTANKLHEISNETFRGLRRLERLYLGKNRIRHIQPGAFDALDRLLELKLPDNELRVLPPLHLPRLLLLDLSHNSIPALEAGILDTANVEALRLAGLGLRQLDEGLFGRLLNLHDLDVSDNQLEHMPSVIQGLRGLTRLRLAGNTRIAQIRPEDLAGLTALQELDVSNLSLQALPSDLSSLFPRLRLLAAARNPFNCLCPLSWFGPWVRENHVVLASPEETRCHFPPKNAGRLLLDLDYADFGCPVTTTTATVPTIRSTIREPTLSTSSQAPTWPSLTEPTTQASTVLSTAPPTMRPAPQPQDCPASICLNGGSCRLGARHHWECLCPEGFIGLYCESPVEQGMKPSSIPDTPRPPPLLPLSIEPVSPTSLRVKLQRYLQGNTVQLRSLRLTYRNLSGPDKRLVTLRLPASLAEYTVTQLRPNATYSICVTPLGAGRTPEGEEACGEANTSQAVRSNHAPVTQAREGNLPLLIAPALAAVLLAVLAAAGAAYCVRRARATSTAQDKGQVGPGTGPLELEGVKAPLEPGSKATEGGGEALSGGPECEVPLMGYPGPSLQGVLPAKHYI
UniProt Q9CWU6: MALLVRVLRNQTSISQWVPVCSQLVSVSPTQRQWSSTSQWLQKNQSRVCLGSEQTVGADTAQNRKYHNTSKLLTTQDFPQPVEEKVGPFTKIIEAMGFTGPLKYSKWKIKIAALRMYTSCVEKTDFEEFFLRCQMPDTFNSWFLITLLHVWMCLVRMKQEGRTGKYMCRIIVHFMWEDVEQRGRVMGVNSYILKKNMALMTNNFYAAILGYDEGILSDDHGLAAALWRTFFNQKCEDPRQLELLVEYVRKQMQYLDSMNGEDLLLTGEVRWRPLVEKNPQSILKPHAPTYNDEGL
UniProt Q9CXC3: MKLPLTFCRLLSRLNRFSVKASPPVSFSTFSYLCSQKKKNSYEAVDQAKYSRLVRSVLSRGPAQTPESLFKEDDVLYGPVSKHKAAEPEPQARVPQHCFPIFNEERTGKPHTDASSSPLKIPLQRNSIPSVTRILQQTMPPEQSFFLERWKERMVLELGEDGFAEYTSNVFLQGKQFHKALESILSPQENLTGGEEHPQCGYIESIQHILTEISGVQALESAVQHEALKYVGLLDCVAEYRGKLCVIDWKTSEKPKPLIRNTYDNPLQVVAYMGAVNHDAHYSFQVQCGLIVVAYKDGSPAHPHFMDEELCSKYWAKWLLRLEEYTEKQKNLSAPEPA
UniProt Q9CRG1: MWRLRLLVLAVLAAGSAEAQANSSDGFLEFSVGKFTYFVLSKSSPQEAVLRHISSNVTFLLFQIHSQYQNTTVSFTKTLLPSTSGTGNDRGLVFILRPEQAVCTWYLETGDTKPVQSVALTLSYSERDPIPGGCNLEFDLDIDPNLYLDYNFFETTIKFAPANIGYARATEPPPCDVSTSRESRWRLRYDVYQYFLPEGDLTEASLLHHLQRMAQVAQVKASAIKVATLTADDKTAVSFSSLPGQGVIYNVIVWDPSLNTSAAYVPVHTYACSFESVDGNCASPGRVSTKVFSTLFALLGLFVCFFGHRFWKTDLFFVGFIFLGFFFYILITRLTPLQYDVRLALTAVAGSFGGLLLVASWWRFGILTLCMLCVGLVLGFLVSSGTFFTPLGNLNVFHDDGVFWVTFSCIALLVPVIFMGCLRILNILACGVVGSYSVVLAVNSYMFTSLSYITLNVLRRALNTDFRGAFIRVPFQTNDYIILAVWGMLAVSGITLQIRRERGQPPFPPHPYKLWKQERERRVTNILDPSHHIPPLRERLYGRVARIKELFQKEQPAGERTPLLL
UniProt Q9CZ42: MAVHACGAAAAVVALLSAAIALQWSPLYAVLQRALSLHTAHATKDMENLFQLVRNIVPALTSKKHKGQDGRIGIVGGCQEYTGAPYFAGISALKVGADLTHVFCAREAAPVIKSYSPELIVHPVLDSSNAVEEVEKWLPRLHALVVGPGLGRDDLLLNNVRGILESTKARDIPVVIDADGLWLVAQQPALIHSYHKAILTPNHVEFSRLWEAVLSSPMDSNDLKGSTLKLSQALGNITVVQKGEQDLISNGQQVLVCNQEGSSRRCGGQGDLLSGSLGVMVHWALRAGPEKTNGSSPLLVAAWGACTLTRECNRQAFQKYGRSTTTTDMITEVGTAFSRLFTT

Row | Target | log2 fold change
1 | UniProt Q9CRC9 (peptide sequence: TLAMDTILANAK, peptide start residue: 161) | -0.198
2 | UniProt Q9CWD8 (peptide sequence: HKTHIFGADGAR, peptide start residue: 249) | -0.239
3 | UniProt Q9CS00 (peptide sequence: GISHLEEK, peptide start residue: 242) | -0.181
4 | UniProt Q9CW42 (peptide sequence: RRLQQVGTVAQLWIYPIK, peptide start residue: 53) | 0.256
5 | UniProt Q9CZ28 (peptide sequence: GVGAGAIAKK, peptide start residue: 5) | -0.196
6 | UniProt Q9CZR8 (peptide sequence: LGENMILK, peptide start residue: 192) | 0.126
7 | UniProt Q9CXR4 (peptide sequence: FLEELRK, peptide start residue: 33) | 0.276
8 | UniProt Q9D0V7 (peptide sequence: REPLNFGVPDGSTGFSSR, peptide start residue: 113) | -0.416
9 | UniProt Q9CZH7 (peptide sequence: EELEEEHR, peptide start residue: 134) | 0.325
10 | UniProt Q9CRB8 (peptide sequence: AGEVPSPEAGR, peptide start residue: 63) | -0.498
11 | UniProt Q9CXL3 (peptide sequence: QKITPAEETPR, peptide start residue: 19) | -0.195
12 | UniProt Q9D0L7 (peptide sequence: LANQIPFAK, peptide start residue: 260) | 0.151
13 | UniProt Q9CZX7 (peptide sequence: LHQHVVK, peptide start residue: 71) | 0.499
14 | UniProt Q9CT10 (peptide sequence: ATAWTCLLEK, peptide start residue: 303) | 0.158
15 | UniProt Q9CRC6 (peptide sequence: SSELLGQAAR, peptide start residue: 44) | -0.211
16 | UniProt Q9CXI3 (peptide sequence: YWLHWGR, peptide start residue: 37) | 0.51
17 | UniProt Q9D0M3 (peptide sequence: KLAYRPPK, peptide start residue: 318) | -0.235
18 | UniProt Q9CZT5 (peptide sequence: YLQGNTVQLR, peptide start residue: 484) | 0.182
19 | UniProt Q9CWU6 (peptide sequence: IIEAMGFTGPLK, peptide start residue: 92) | -0.448
20 | UniProt Q9CXC3 (peptide sequence: LEEYTEK, peptide start residue: 322) | 0.257
21 | UniProt Q9CRG1 (peptide sequence: IKELFQK, peptide start residue: 547) | -0.0351
22 | UniProt Q9CZ42 (peptide sequence: AILTPNHVEFSR, peptide start residue: 197) | -0.259
23 | UniProt Q9CW46 (peptide sequence: LFSHPREPTLGAHGPSR, peptide start residue: 606) | 0.243

Two entries from above in a different format:
Row	Target	log2 fold change
21	UniProt Q9CRG1 (peptide sequence: IKELFQK, peptide start residue: 547)	-0.0351
22	UniProt Q9CZ42 (peptide sequence: AILTPNHVEFSR, peptide start residue: 197)	-0.259

Reference: the supplement of paper PMC12819154, “High-throughput peptide-centric local stability assay extends protein–ligand identification to membrane proteins, tissues and bacteria” (Nature Structural & Molecular Biology, 2025)
